# These are yes or no findings as the source states them, for the method shown. Binding seen in cells or lysates may run through a third protein. Here binding means that the protein was enriched with, or labelled near, the bait; the list need not be complete.
# Protein sequences, listed by entry. Tags and fused reporters are not part of them. Lines headed by an entry give the natural chain unless they say otherwise; changes in a name come on top.
# UniProt Q8TDG2: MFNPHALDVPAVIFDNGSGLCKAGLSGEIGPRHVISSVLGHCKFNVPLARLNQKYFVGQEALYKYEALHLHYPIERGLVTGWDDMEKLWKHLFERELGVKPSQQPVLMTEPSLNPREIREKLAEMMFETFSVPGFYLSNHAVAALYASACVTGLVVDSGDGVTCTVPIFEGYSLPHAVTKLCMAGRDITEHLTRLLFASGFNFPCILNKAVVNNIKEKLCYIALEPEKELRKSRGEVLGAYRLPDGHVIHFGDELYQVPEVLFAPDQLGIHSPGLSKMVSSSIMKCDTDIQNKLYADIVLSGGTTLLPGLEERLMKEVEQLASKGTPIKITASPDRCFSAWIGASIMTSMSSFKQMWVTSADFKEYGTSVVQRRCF
# UniProt P11142: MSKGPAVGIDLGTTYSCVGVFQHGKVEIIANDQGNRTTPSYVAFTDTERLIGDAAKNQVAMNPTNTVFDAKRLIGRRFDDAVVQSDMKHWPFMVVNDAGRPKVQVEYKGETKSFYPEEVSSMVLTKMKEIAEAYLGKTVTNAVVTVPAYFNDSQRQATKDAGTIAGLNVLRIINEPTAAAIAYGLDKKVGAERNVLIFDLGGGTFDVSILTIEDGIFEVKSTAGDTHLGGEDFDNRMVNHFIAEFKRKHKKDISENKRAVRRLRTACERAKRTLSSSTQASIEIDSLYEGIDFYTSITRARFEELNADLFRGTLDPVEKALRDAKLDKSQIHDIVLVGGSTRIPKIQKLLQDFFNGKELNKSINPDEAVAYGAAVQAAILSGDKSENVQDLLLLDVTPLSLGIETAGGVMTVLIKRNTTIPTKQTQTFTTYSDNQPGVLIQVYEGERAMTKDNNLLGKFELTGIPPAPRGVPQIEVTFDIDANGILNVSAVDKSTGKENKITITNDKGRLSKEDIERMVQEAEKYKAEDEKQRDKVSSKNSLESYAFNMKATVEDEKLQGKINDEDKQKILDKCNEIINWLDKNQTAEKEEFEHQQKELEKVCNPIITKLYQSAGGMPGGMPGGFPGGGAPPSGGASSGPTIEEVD
# UniProt P23258: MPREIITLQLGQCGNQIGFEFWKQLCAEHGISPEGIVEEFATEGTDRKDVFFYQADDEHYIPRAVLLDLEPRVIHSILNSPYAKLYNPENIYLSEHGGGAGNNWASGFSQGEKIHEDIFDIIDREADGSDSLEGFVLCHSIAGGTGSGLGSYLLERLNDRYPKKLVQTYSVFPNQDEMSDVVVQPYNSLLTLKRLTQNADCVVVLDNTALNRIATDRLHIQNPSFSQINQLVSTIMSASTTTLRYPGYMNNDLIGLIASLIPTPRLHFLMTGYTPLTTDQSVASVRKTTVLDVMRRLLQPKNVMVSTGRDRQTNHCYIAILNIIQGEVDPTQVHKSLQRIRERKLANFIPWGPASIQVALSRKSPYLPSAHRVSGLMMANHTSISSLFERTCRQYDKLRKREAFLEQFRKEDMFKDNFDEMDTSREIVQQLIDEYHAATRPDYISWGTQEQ
# UniProt O95816: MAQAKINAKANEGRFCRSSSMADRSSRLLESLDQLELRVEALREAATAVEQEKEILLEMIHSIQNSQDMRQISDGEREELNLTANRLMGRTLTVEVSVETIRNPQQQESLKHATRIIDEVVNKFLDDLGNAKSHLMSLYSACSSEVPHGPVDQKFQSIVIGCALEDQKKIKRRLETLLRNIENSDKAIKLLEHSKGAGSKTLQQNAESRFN
# Molecular target: Actin-Related Protein-Testis1 (ARP-T1), wild type, tagged with Myc-DDK (human) (UniProt Q8TDG2)
# Test: affinity purification with mass spectrometry
row,binding,Molecule
1,binds,"EHD4, endogenous (protein, UniProt Q9H223 1-541) MFSWMGRQAGGRERAGGADAVQTVTGGLRSLYLRKVLPLEEAYRFHEFHSPALEDADFENKPMILLVGQYSTGKTTFIRYLLEQDFPGMRIGPEPTTDSFIAVMYGETEGSTPGNALVVDPKKPFRKLSRFGNAFLNRFMCSQLPNQVLKSISVIDSPGILSGEKQRISRGYDFCQVLQWFAERVDRIILLFDAHKLDISDEFSEAIKAFRGQDDKIRVVLNKADQVDTQQLMRVYGALMWSLGKVINTPEVLRVYIGSFWAQPLQNTDNRRLFEAEAQDLFRDIQSLPQKAAVRKLNDLIKRARLAKVHAYIISYLKKEMPSVFGKENKKRELISRLPEIYIQLQREYQISAGDFPEVKAMQEQLENYDFTKFHSLKPKLIEAVDNMLSNKISPLMNLISQEETSTPTQLVQGGAFDGTTEGPFNQGYGEGAKEGADEEEWVVAKDKPVYDELFYTLSPINGKISGVNAKKEMVTSKLPNSVLGKIWKLADCDCDGMLDEEEFALAKHLIKIKLDGYELPSSLPPHLVPPSHRKSLPKAD"
2,binds,"Septin9 (protein, UniProt Q9UHD8 1-586) MKKSYSGGTRTSSGRLRRLGDSSGPALKRSFEVEEVETPNSTPPRRVQTPLLRATVASSTQKFQDLGVKNSEPSARHVDSLSQRSPKASLRRVELSGPKAAEPVSRRTELSIDISSKQVENAGAIGPSRFGLKRAEVLGHKTPEPAPRRTEITIVKPQESAHRRMEPPASKVPEVPTAPATDAAPKRVEIQMPKPAEAPTAPSPAQTLENSEPAPVSQLQSRLEPKPQPPVAEATPRSQEATEAAPSCVGDMADTPRDAGLKQAPASRNEKAPVDFGYVGIDSILEQMRRKAMKQGFEFNIMVVGQSGLGKSTLINTLFKSKISRKSVQPTSEERIPKTIEIKSITHDIEEKGVRMKLTVIDTPGFGDHINNENCWQPIMKFINDQYEKYLQEEVNINRKKRIPDTRVHCCLYFIPATGHSLRPLDIEFMKRLSKVVNIVPVIAKADTLTLEERVHFKQRITADLLSNGIDVYPQKEFDEDSEDRLVNEKFREMIPFAVVGSDHEYQVNGKRILGRKTKWGTIEVENTTHCEFAYLRDLLIRTHMQNIKDITSSIHFEAYRVKRLNEGSSAMANGMEEKEPEAPEM"
3,binds,"Septin2 (protein, UniProt Q15019 1-361) MSKQQPTQFINPETPGYVGFANLPNQVHRKSVKKGFEFTLMVVGESGLGKSTLINSLFLTDLYPERVIPGAAEKIERTVQIEASTVEIEERGVKLRLTVVDTPGYGDAINCRDCFKTIISYIDEQFERYLHDESGLNRRHIIDNRVHCCFYFISPFGHGLKPLDVAFMKAIHNKVNIVPVIAKADTLTLKERERLKKRILDEIEEHNIKIYHLPDAESDEDEDFKEQTRLLKASIPFSVVGSNQLIEAKGKKVRGRLYPWGVVEVENPEHNDFLKLRTMLITHMQDLQEVTQDLHYENFRSERLKRGGRKVENEDMNKDQILLEKEAELRRMQEMIARMQAQMQMQMQGGDGDGGALGHHV"

# More lines, now with the values behind:
row,Molecule,binding
1,heat shock cognate 71 kDa protein (Hsc70) (from UniProt P11142 1-646),binds
2,γ-Tubulin (from UniProt P23258),binds
3,Bcl2-associated athanogen (BAG2) protein (from UniProt O95816 1-211),binds
